Reference: PMC2854129, “Spadin, a Sortilin-Derived Peptide, Targeting Rodent TREK-1 Channels: A New Concept in the Antidepressant Drug Design” (PLoS Biology, 2010)
These are yes or no findings as the source states them, for the method shown. For some of these results: In cells and extracts the contact can be indirect. Some entries that bind do so weakly or less than the wild type. One block for each molecule: values may come before it.

Sequences of proteins named here, by UniProt entry; tags and fusion partners are left off. A change or cut given only in a name is not applied to a line headed by its entry. Residues count along the entry.
UniProt P97438: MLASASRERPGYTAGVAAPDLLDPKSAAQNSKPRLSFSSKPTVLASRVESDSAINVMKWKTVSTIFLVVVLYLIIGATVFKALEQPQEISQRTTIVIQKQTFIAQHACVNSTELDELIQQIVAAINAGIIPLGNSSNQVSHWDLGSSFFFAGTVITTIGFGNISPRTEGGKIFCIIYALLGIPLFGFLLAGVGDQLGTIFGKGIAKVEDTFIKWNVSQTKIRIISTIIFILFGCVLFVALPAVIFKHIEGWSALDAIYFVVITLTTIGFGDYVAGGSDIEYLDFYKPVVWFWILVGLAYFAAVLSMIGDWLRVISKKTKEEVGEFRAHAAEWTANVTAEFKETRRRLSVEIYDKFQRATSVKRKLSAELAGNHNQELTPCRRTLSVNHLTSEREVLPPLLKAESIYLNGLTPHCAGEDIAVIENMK
UniProt Q99523, residues 78-831: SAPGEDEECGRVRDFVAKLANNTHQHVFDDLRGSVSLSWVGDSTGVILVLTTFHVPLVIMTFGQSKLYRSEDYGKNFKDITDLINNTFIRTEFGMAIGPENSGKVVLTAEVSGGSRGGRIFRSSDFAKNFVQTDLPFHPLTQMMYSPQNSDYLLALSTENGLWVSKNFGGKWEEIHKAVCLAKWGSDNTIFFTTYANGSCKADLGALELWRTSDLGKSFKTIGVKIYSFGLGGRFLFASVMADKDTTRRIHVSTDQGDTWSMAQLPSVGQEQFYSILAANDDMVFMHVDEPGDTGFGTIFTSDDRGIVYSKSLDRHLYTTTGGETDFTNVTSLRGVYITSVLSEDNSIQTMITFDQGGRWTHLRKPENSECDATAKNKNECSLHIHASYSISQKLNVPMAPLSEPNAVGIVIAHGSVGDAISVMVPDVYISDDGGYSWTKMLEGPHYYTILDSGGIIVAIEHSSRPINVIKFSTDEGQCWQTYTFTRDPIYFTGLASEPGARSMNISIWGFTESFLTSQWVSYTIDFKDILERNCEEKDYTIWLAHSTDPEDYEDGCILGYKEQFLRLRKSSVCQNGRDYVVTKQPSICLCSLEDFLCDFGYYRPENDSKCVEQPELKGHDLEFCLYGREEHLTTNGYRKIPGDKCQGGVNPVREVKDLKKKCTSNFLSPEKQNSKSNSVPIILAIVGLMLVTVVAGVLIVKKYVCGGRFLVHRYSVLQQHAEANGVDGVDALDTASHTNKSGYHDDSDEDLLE
UniProt Q6PHU5, residues 74-825: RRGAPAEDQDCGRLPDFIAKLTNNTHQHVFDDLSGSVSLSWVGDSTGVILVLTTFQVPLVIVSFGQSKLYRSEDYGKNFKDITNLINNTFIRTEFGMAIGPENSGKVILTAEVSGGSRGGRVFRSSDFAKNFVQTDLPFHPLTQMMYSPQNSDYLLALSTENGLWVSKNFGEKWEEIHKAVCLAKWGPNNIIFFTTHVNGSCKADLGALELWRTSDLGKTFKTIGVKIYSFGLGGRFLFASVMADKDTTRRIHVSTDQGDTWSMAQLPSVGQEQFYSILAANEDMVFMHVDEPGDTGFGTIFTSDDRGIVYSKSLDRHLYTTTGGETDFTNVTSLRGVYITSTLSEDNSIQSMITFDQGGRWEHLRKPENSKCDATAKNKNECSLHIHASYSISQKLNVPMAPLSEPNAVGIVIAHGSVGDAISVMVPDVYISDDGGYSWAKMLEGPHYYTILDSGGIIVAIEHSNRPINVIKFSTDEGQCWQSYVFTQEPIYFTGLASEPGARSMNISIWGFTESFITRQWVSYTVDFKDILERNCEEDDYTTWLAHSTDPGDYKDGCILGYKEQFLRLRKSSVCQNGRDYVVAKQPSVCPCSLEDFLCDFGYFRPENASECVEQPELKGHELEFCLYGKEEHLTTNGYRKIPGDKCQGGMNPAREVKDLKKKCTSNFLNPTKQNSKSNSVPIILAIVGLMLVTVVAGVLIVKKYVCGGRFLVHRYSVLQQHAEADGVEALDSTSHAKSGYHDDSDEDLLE
UniProt P30990: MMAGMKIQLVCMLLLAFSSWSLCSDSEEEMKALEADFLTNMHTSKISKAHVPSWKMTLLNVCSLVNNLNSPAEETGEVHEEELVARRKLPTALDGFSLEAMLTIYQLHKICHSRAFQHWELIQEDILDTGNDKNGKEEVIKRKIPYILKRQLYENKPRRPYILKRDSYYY

Assays:
[1] = target: TREK-1 channel (KCNK2), transfected in COS-7 cells (mouse) (UniProt P97438); assay: co-IP; lysates (1% Triton X100, 50 mM NaCl, pH 7.5) of COS-7 cells co-transfected with TREK-1 and NTSR3/Sortilin; IP with rabbit polyclonal anti-TREK-1 or anti-NTSR3, protein-A beads overnight at 4°C; Western blot
[2] = target: TREK-1 channel, endogenous in mouse neurons (mouse (endogenous in cortical neurons)) (UniProt P97438); assay: co-IP; lysates (1% Triton X100, 50 mM NaCl, pH 7.5) of mouse cortical neurons, endogenous proteins; IP with rabbit polyclonal anti-TREK-1 or anti-NTSR3, protein-A beads overnight at 4°C; Western blot
[3] = target: NTSR3/Sortilin (neurotensin receptor 3), transfected in COS-7 cells (UniProt Q99523); assay: co-IP; lysates (1% Triton X100, 50 mM NaCl, pH 7.5) of COS-7 cells co-transfected with TREK-1 and NTSR3/Sortilin; IP with rabbit polyclonal anti-TREK-1 or anti-NTSR3, protein-A beads overnight at 4°C; Western blot
[4] = target: NTSR3/Sortilin, endogenous in mouse cortical neurons (mouse (endogenous in cortical neurons)) (UniProt Q6PHU5); assay: co-IP; lysates (1% Triton X100, 50 mM NaCl, pH 7.5) of mouse cortical neurons, endogenous proteins; IP with rabbit polyclonal anti-TREK-1 or anti-NTSR3, protein-A beads overnight at 4°C; Western blot
[5] = target: TREK-1 channel (KCNK2), transfected in COS-7 cells (mouse) (UniProt P97438); assay: condition: 10^-5 M (highest concentration of competitor, from the methods); radioligand binding; competition: homogenates of TREK-1 transfected COS-7 cells with 0.2 nM 125I-spadin and increasing unlabelled spadin, NT or Gln1-Arg16 (10^-10 to 10^-5 M); 50 mM Tris-HCl pH 7.4, 0.1% BSA; filtration; only the binder purified
[6] = target: TREK-1 channel (KCNK2), transfected in COS-7 cells (mouse) (UniProt P97438); assay: radioligand binding; association kinetics of 0.2 nM 125I-spadin on whole COS-7 cells expressing TREK-1 at 37°C, Earle's Tris-Hepes buffer; wash with buffer or acid-NaCl; non-specific binding with 10 µM unlabelled spadin; only the binder purified
[7] = target: TREK-1 channel (KCNK2), transfected in COS-7 cells (mouse) (UniProt P97438); assay: radioligand binding; competition: homogenates of TREK-1 transfected COS-7 cells with 0.2 nM 125I-spadin and increasing unlabelled spadin, NT or Gln1-Arg16 (10^-10 to 10^-5 M); 50 mM Tris-HCl pH 7.4, 0.1% BSA; filtration; only the binder purified

Molecule: NTSR3/Sortilin (neurotensin receptor 3), transfected in COS-7 cells (from UniProt Q99523 78-831)
- binding [1]: binds

Molecule: neurotensin (NT), unlabelled (from UniProt P30990 151-163) (peptide)
- binding [5]: no binding

Molecule: YAPLPRWSGPIGVSWGLR (monoiodinated (125I) on Tyr0) [125I-labelled spadin (monoiodinated on Tyr0)]
- binding [6]: binds
- binding [7]: binds

The remaining lines, values ahead:

- binding [2]: binds
Molecule: NTSR3/Sortilin, endogenous in mouse cortical neurons (from UniProt Q6PHU5-1 74-825) (receptor)

- binding [3]: binds
Molecule: TREK-1 channel (KCNK2), transfected in COS-7 cells (from UniProt P97438 1-426)

- binding [4]: binds
Molecule: TREK-1 channel, endogenous in mouse neurons (from UniProt P97438 1-426)
